The whole screen tested about 2,200 compounds, of which about 15 (0.7%) were called active.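 Rule for the calls: active = fitted half-maximal concentration for loss of luminescence signal no more than a set limit of log units above the top tested concentration; inconclusive = flat fit with 30 to 70% signal loss, or invalid fit; inactive = half-maximal concentration above that set limit.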 The list shows a part of the results.
Assay: ADP-Glo luciferase signal interference – biochemical, luminescence, cell-free, homogeneous, artefact control for GSK3beta inhibitor project, dose response (AID 434947);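 note: kinase-free counter screen of ADP-Glo detection reagents for GSK3beta hits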
Conditions: Cell-free ADP-Glo reagents, 5 uM ADP

EC50, inactive:
COc1ccc(C2=NOC(C(=O)Nc3cccnc3)C2)cc1 (stereo not given) > 30 µM
O=C(NCC(c1ccco1)N1CCc2ccccc21)c1cccc([N+](=O)[O-])c1 (stereo not given) > 30 µM
CCCN(CCC)CCCNc1ccc2nnc(-c3ccc(F)cc3)n2n1 > 30 µM
COc1ccc(CCNC(=O)CN2CCOc3ccccc32)cc1OC > 30 µM
CCCCOC(=O)C1=C(C)Nc2ncnn2C1c1cccc(OC)c1OC (stereo not given) > 30 µM
O=C(O)c1cccc(Nc2ccnc(Nc3cccc(C(=O)O)c3)n2)c1 > 30 µM
COc1ccc(-c2cc(=O)oc3c(C)c(O)ccc23)cc1 > 30 µM
Cc1c(C(=O)O)sc2ncnc(N3CCCCC3C)c12 (stereo not given) > 30 µM
O=c1cc(-c2ccccc2Cl)oc2ccc([N+](=O)[O-])c(O)c12 > 30 µM
C=CCNC(=O)/C(=C\c1cccc([N+](=O)[O-])c1)NC(=O)c1ccccc1 > 30 µM
CC(C)N(Cc1nnc(-c2ccc(Cl)cc2)o1)C(=O)C1=COCCO1 > 30 µM
COc1ccc(CNC(=O)CN(Cc2ccc(OC)cc2)C(=O)CCC(=O)Nc2nccs2)cc1 > 30 µM
COc1cccc(C(=O)CC(C#N)c2ccc(F)cc2)c1 (stereo not given) > 30 µM
COc1cccc2c1cc1c(=O)n(CC(=O)N3CCC(C)CC3)nc(C)n12 > 30 µM
CCOc1ccccc1NC(=O)c1nnn(-c2ccc3c(c2)OCCO3)c1N > 30 µM
CC1(C)CC(=O)C2=C(C1)Nc1ncnn1C2c1cccs1 (stereo not given) > 30 µM
COc1ccccc1/C=C1\C(=O)Nc2ccccc21 > 30 µM
CCn1c(SCC(=O)NNC(=O)c2ccc(C)cc2)nnc1C1CC1 > 30 µM
Cc1ccc(-n2c(C)c([N+](=O)[O-])c3ccc(O)cc32)cc1 > 30 µM
CCN1CCN(C(=O)Cn2nc(C)n3c(cc4c(OC)cccc43)c2=O)CC1 > 30 µM
CC(OC(=O)c1nsc(Cl)c1Cl)C(=O)NCc1ccco1 (stereo not given) > 30 µM
Cc1ccc(S(=O)(=O)N/N=C\c2cn(-c3ccccc3)nc2-c2ccccc2)cc1 > 30 µM
CN1CCN(c2nc(-c3ccccc3)nc(-c3ccccc3)c2C#N)CC1 > 30 µM
Cc1nnc2n(-c3ccccc3)c(=O)c3c4c(sc3n12)COC(C)(C)C4 > 30 µM
Oc1ccc(/C=N/Nc2ncnc3nc[nH]c23)cc1 > 30 µM
CC1CCCCN1c1cc(C#N)c(C#N)cc1[N+](=O)[O-] (stereo not given) > 30 µM
O=C(O)c1ccc(/C=N/Nc2ccc(C(F)(F)F)cn2)cc1 > 30 µM
O=C(CSc1nnc(-c2ccncc2)n1-c1ccc(F)cc1)NC(=O)NCc1ccco1 > 30 µM
Cc1[nH]n(-c2ccccc2)c(=O)c1/C=N/NC(=O)COc1ccccc1[N+](=O)[O-] > 30 µM
CCN(CC)S(=O)(=O)c1cccc(N2CC(O)=C(c3ccccc3)C2=N)c1 > 30 µM
CCN(CC)Cc1c(O)ccc2c1O/C(=C\C=C\c1ccccc1)C2=O > 30 µM
Nc1nonc1-n1nnc(C(=O)N/N=C/c2cccc(Cl)c2)c1CN1CCCC1 > 30 µM
Nc1nc(Nc2ccccc2F)sc1C(=O)c1ccccc1 > 30 µM
CCCCOC(=O)c1ccc(O)cc1 > 30 µM
Cc1ccc(Cc2cnc(NC(=O)C3CCCO3)s2)cc1 (stereo not given) > 30 µM
CCN1CCN(CC2COc3ccccc3O2)CC1 (stereo not given) > 30 µM
CCOc1ccc(/C=N/Nc2ccccn2)cc1OC > 30 µM
O=C(c1ccc(Br)cc1)c1coc2ccc(O)cc12 > 30 µM
CN(Cc1c(C(=O)N/N=C/c2ccc(O)cc2)nnn1-c1nonc1N)C1CCCCC1 > 30 µM
CCSc1nc2sc3c(c2c(=O)n1-c1ccccc1)CCN(C)C3 > 30 µM
Nc1nc(NCCOCCO)nc(NCc2ccccc2)c1[N+](=O)[O-] > 30 µM
COc1ccc(NC(=S)Nc2cccc(Cl)c2Cl)cc1OC > 30 µM
CC(C)(C)c1ccc(/C=N/n2cnnc2)cc1 > 30 µM
CCN1CCN(c2cc(C)c3cc(NC(=O)CCC(=O)Nc4ccc(OC)cc4OC)ccc3n2)CC1 > 30 µM
COc1ccc(OC)c(Nc2nc(NCCCN(C)C)nc(N)c2[N+](=O)[O-])c1 > 30 µM
CS(=O)(=O)c1ccccc1-c1nnc(NC(=O)c2ccc3ncsc3c2)o1 > 30 µM
O=C(OCCCOC(=O)c1ccc(O)cc1)c1ccc(O)cc1 > 30 µM
Nc1nc(NCc2ccco2)nc(Nc2ccccc2)c1[N+](=O)[O-] > 30 µM
NC(=O)C1CCN(c2nc3c(S(=O)(=O)c4ccccc4)nnn3c3ccccc23)CC1 > 30 µM
Nc1nonc1-n1nnc(C(=O)N/N=C/c2ccccc2F)c1CN1CCc2ccccc21 > 30 µM
Cc1nnc2n(-c3ccccc3)c(=O)c3c4c(sc3n12)CCCC4 > 30 µM
O=C(Nc1nccs1)C1CCCN1S(=O)(=O)c1cccc2cccnc12 (stereo not given) > 30 µM
O=C(CCSc1nnc(-c2ccncc2)o1)Nc1ccc(F)cc1 > 30 µM
O=C(O)c1cc(-c2ccc(/C=N/NC(=S)Nc3ccccc3)o2)ccc1Cl > 30 µM
Cc1cccc2cc3c(NC(=O)C(C)(C)C)nn(CC(C)C)c3nc12 > 30 µM
c1ccc(CNc2nc(-c3cccnc3)nc3ccccc23)cc1 > 30 µM
Cc1ccc(-n2nc3c(N4CCC(C(=O)N5CCCCCC5)CC4)nnc(C)c3c2C)cc1 > 30 µM
O=[N+]([O-])c1ccccc1Oc1ccccc1Cl > 30 µM
COc1ccccc1-c1c(C(F)(F)F)oc2c(CN(C)C)c(O)ccc2c1=O > 30 µM
COc1ccc(OC)c(Nc2nc(NCCC(C)C)nc(N)c2[N+](=O)[O-])c1 > 30 µM
CCc1ccc(Oc2ncnc(N)c2[N+](=O)[O-])cc1 > 30 µM
Cc1c(Cc2ccccc2)c(=O)oc2cc(O)cc(O)c12 > 30 µM
CCOC(=O)c1sc2c(c1C)C(c1cccs1)C1=C(CCCC1=O)N2 (stereo not given) > 30 µM
CC(C)[C@H](CO)Nc1nc(NCc2ccc(S(N)(=O)=O)cc2)c2ncn(C(C)C)c2n1 > 30 µM
CC(=O)N1CCc2c(sc(NC(=O)Cc3ccc(F)cc3)c2C(N)=O)C1 > 30 µM
CCNC(=S)Nc1ccc2cn[nH]c2c1 > 30 µM
CC(C)n1cnc2c(Nc3cccc(Cl)c3)nc(NCCCO)nc21 > 30 µM
Cc1nccc(-c2cccc(NC(=O)c3ccccc3Cl)c2)n1 > 30 µM
CC(C(=O)NCc1ccco1)n1cc([N+](=O)[O-])cn1 (stereo not given) > 30 µM
C[C@@H]1O[C@@H](OC[C@H]2O[C@@H](Oc3c(-c4ccc(O)c(O)c4)oc4cc(O)cc(O)c4c3=O)[C@H](O)[C@@H](O)[C@@H]2O)[C@H](O)[C@H](O)[C@H]1O > 30 µM
CN(C)c1nc(N)c([N+](=O)[O-])c(NCC2CCCO2)n1 (stereo not given) > 30 µM
N#Cc1ccc(CSc2nnc(-c3ccncc3)o2)cc1 > 30 µM
COC(=O)c1sccc1NC(=O)c1cccc(OC)c1 > 30 µM
Cc1c(NC(=O)CSc2nnc3sc4ccccc4n23)c(=O)n(-c2ccccc2)n1C > 30 µM
Cc1nnc(SCC(=O)Nc2ccc(Cl)cn2)[nH]c1=O > 30 µM
Cc1ccc(Nc2nc(N)c([N+](=O)[O-])c(NCc3ccco3)n2)cc1 > 30 µM
COc1ccc2c(c1)-c1c(sn(-c3ccccc3)c1=S)C(C)(C)N2 > 30 µM
CCOC(=O)c1cnc2ccc(OCC)cc2c1N1CCN(c2ccccc2)CC1 > 30 µM
Cc1nc(NCCCn2ccnc2)c2ccccc2n1 > 30 µM
COc1ccc(-c2nnc3ccc(SCC(N)=O)nn23)cc1OC > 30 µM
N#Cc1ccccc1CSc1nnc(Cc2ccccc2)o1 > 30 µM
CCC(C)Nc1nc(N)c([N+](=O)[O-])c(NCc2ccccc2)n1 (stereo not given) > 30 µM
COc1ccc(NC(=O)c2cccc(N3C(=O)c4cccc([N+](=O)[O-])c4C3=O)c2)cc1 > 30 µM
COc1ccc(Nc2nc3ccc(OC)cc3s2)cc1 > 30 µM
COc1ccc(/C=C/C(=O)NC2CCN(Cc3ccccc3)CC2)cc1OC > 30 µM
CNc1nc(N)c(C(=O)C(C)(C)C)s1 > 30 µM
CS(=O)(=O)N(CCc1ccccc1)CC(=O)N1CCN(c2ccccc2F)CC1 > 30 µM
CCN1C(=O)[C@H]2[C@@H](c3ccc(-c4ccccc4)cc3)N[C@@](CC(C)C)(C(=O)OC)[C@H]2C1=O > 30 µM
CCOC(=O)c1c(C)[nH]c(O)c1C=Nc1ccccc1 > 30 µM
Nc1nonc1-n1nnc(C(=O)N/N=C/c2c(Cl)cccc2Cl)c1CN1CCOCC1 > 30 µM

Of the compounds above, six contain two or more sulfur atoms:
EC50, inactive:
CCSc1nc2sc3c(c2c(=O)n1-c1ccccc1)CCN(C)C3 > 30 µM
CS(=O)(=O)c1ccccc1-c1nnc(NC(=O)c2ccc3ncsc3c2)o1 > 30 µM
O=C(Nc1nccs1)C1CCCN1S(=O)(=O)c1cccc2cccnc12 (stereo not given) > 30 µM
CCOC(=O)c1sc2c(c1C)C(c1cccs1)C1=C(CCCC1=O)N2 (stereo not given) > 30 µM
Cc1c(NC(=O)CSc2nnc3sc4ccccc4n23)c(=O)n(-c2ccccc2)n1C > 30 µM
COc1ccc2c(c1)-c1c(sn(-c3ccccc3)c1=S)C(C)(C)N2 > 30 µM
